According to PMC3126838:
The comparison behind a weaker result is the experiment's own reference, which may not be listed here. Protein sequences can lack the tags named with them.

Target: T1, Nop8p (His-Nop8p) (UniProt Q08287)
T1 sequence (looked up): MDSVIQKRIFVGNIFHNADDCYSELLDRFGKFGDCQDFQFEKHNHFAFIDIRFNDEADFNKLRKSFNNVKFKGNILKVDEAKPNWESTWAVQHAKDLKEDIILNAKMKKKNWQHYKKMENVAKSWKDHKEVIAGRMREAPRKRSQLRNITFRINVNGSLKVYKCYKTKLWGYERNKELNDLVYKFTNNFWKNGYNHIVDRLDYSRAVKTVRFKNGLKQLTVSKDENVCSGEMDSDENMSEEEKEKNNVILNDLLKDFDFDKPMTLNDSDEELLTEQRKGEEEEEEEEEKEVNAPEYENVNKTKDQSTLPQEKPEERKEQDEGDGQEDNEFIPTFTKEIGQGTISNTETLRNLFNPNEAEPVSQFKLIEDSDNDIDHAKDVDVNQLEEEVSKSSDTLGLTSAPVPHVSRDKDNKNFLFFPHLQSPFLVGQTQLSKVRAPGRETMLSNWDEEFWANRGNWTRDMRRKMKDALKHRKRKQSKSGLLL
Experiment: EMSA
Settings: 1 pmol RNA, binds, but with much lower affinity than poly-AU; EMSA: 1 pmol radiolabeled RNA, 37 C, 30 min, 8% native PAGE; recombinant protein; residues 1-484

“AAAAAAAAAAAAAA [poly-rA 14-mer (poly-A14)]”: binds more weakly.
